The subject of this data set is Ramos cell surface (control cells, no defined protein) (Homo sapiens). As to the kind of experiment: flow cytometry. The settings on record: 5'-carboxyl, conjugated to FITC-chitosan nanoparticle amines; protein on the cell surface; label: FITC (on nanoparticle); single-stranded DNA.

Construct, isoform or probe ends are uncertain for at least one entry. Where cells or extracts were used, other partners may take part. No signal at the amounts used counts as a negative.

Consider “ATCTAACTGCTGCGCCGCCGGGAAAATACTGTACGGTTAGA [sgc8c]”, for which the binding result is on record as “no binding”.

Values taken from patent US20110158901.
